Source: patent US20210179727A1
No constants are given. Whether binding was seen depends on the method and setting. Some binding calls cover weakened binding; strength is not graded here.

Amino acid sequences for entries named in this document (tags omitted). A change or cut given only in a name is not applied to a line headed by its entry.
UniProt P25942: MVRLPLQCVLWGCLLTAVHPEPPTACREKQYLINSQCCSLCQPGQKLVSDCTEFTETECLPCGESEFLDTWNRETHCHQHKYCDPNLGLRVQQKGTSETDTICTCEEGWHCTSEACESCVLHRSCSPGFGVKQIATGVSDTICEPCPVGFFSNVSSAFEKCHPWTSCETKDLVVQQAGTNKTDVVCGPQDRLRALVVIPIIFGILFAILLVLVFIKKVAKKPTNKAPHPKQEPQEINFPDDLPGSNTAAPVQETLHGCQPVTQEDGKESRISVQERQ

Legend:
[1] = target: human CD40 expressed on CHO cells (human) (UniProt P25942); test: FACS on CHO cells over-expressing human CD40, goat F(ab')2 anti-human IgG-Fc PE, MFI
[2] = target: human CD40 expressed on CHO cells (human) (UniProt P25942); test: FACS on CHO cells over-expressing human CD40, chimeric antibodies
[3] = target: human CD40-His tag protein (Sino Biological Inc. Cat #10239-H08E) (human) (UniProt P25942); test: ELISA, plate coated with human CD40-His, anti-human IgG-HRP detection
[4] = target: human CD40-His tag protein (Sino Biological Inc. Cat #10239-H08E) (human) (UniProt P25942); test: ELISA, plate coated with human CD40-His at 1 ug/ml, anti-human IgG-HRP, A450

Row | binding [1] | binding [2] | binding [3] | binding [4] | Binder
1 | binds | binds | binds | binds | LYV379 (chimeric antibody, 17C5C2 in human IgG4SP / human kappa) (antibody, V domains shown) VH: EVHILETGGGLVKPGGSLGLSCTTSGFNFNDYFMNWVRQAPGKGLEWVAQIRNGNYDYAAYYAESLEGRVTISRDDSKSSVNLQVSSLRAEDTAIYYCTSYYYDGHFDYFDNWGHGVMVTVSS VL: DIKVTQSPSFLSASVGDRATINCKASQNLNKYLNWYQQKPGEPPKLLIYNTDNLYTGIPSRFSGSGSVADFTLTISGLQPEDVATYFCMQHNVRRTFGGGTKLELKR
2 | binds | binds | binds | binds | LYV391 (chimeric antibody, 36G7B8 in hG4SP / human kappa) (antibody, human IgG4 S228P, kappa, V domains shown) VH: QVQLQQPGAELVRPGASVKLSCKASGYIFISYWIHWLKQRPGRGLEWIGRIDPNNGGTKYNEKFRYKASLTVDKSSSTAYMQLSSLTSEDSAVYYCTKGVITTLVAGDYWGQGTTLTVSS VL: DVVMTQIPLSLPVSIGDQASISCRSSQSLVYSYGNTYLHWFLQKPGQSPKLLIYNVSNRFSGVPDRFSGSGSGTDFTLRISRVEAEDLGVYFCSQGTHVPWTFGGGTKLEIKR

Continued, binder first:

Row | Binder | binding [1] | binding [2] | binding [3] | binding [4]
3 | LYV376 (chimeric antibody, 19G6D6 in human IgG4SP / human kappa) (antibody, V domains shown) VH: EVQLQQSGPELVKPGASVKIPCKASGYTFTDYNMDWVKQSHGKSLEWIGDINPNNDISIYNQKFRGKATLTVDKSSSTAYMELRSLTSEDTAVYYCARRFAYWGQGTLVTVSA VL: EIVLTQSPTTMAASPGEKITITCSASSSISSNYLHWYQQKPGSSPKVLIYRTSNLASGVPVRFSGSGSGTSYSLTIGTMEAEDVATYYCQQGSSIPYTFGGGTKLEIKR | binds | binds | binds | binds
4 | LYV378 (chimeric antibody, 9F12D9 in human IgG4SP / human kappa) (antibody, V domains shown) VH: EVHLVESGGGLVQPGRSLKLSCAASGFTFTNYGLHWIRQAPTKGLEWVASISPSGGVTYYRDSVKGRFTISRDNGKTTLHLQMDSLRSEDTATYYCALPFLGWGGANWIAHWGQGTLVTVSS VL: DIQMTQSPASLSASLGETVSIECLASEDISNDLAWYQQKSGKSPQLLIYFVDRLLDGVPSRFSGSGSGTRHSLKISGMQPEDEADYFCQQSYKYPPTFGGGTKLELKR | binds | binds | binds | binds
5 | LYV377 (chimeric antibody, 13F1A7 in human IgG4SP / human kappa) (antibody, V domains shown) VH: EVQILETGGGLVKPGGSLRLSCATSGFNFNDSFMNWVRQAPGKGLEWVAQIRNKNYNYATYYTESLEGRVTISRDDSKSRVYLQVSSLRAEDSAVYYCTSYYYDGFADYFDYWGQGVMVTVSS VL: DIKMTQSPSFLSASVGDSVTFTCKASQNIYIYLNWYQQKFGEAPKLLIYNTNNLQTGIPSRFSGSESGTVFTLTISSLQPEDVATYFCLQHSSRRTFGGGTKLELKR | binds | binds | binds | binds
